Test results: ChEMBL document CHEMBL5674883, “The Heterochromatin Landscape in Migrating Cells and the Importance of H3K27me3 for Associated Transcriptome Alterations” (Cells, 2018)
This continues a long series; more values of the same kind are listed elsewhere.

Chains of the proteins cited; added tags and fusions are not shown.
UniProt Q61188, whole entry: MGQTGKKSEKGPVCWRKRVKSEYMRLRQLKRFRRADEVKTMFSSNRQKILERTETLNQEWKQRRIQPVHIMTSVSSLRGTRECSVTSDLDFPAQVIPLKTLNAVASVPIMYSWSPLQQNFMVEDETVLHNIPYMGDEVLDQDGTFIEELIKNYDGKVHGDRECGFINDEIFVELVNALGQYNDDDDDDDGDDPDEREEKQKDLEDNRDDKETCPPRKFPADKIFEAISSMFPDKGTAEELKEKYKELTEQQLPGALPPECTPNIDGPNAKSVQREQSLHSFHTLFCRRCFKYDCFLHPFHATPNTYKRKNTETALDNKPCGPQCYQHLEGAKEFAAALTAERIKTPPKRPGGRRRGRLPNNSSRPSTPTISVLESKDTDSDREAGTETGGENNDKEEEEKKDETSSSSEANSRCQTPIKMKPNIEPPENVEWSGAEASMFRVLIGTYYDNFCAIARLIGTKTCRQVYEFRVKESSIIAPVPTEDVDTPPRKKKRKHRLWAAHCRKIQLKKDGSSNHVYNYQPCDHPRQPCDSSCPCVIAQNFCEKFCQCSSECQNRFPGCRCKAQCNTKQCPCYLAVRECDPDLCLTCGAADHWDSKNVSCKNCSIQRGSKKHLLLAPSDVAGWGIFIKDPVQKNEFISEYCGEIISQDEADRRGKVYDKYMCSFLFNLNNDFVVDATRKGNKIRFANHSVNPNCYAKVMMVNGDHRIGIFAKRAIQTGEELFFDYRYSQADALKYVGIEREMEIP

Assays:
Assay type in all cases: cell-based
[1] = biological target: T1, RNA polymerase II (Mus musculus) (UniProt P08775+Q8CFI7+P97760+A0A3Q4L2S8+Q80UW8+P61219+P62488+Q923G2+P60898+O08740+Q63871+P62876); test: Inhibition of RNA polymerase II in mouse B16-F1 migrating cells assessed as fold change in Cwf19l2-RNA stability at 0.1 mM measured by ChIP-seq analysis relative to control cells
[2] = biological target: T1, RNA polymerase II (Mus musculus); test: Inhibition of RNA polymerase II in mouse B16-F1 migrating cells assessed as fold change in Map2k2-RNA stability at 0.1 mM measured by ChIP-seq analysis relative to control cells
[3] = biological target: T1, RNA polymerase II (Mus musculus); test: Inhibition of RNA polymerase II in mouse B16-F1 migrating cells assessed as fold change in Eif2ak2-RNA stability at 0.1 mM measured by ChIP-seq analysis relative to control cells
[4] = biological target: T1, RNA polymerase II (Mus musculus); test: Inhibition of RNA polymerase II in mouse B16-F1 migrating cells assessed as fold change in Pfkl-RNA stability at 0.1 mM measured by ChIP-seq analysis relative to control cells
[5] = biological target: T1, RNA polymerase II (Mus musculus); test: Inhibition of RNA polymerase II in mouse B16-F1 migrating cells assessed as fold change in Aldoart1-RNA stability at 0.1 mM measured by ChIP-seq analysis relative to control cells
[6] = biological target: T1, RNA polymerase II (Mus musculus); test: Inhibition of RNA polymerase II in mouse B16-F1 migrating cells assessed as fold change in Setd5-RNA stability at 0.1 mM measured by ChIP-seq analysis relative to control cells
[7] = biological target: T1, RNA polymerase II (Mus musculus); test: Inhibition of RNA polymerase II in mouse B16-F1 migrating cells assessed as fold change in Rock2-RNA stability at 0.1 mM measured by ChIP-seq analysis relative to control cells
[8] = biological target: T1, RNA polymerase II (Mus musculus); test: Inhibition of RNA polymerase II in mouse B16-F1 migrating cells assessed as fold change in Tssk4-RNA stability at 0.1 mM measured by ChIP-seq analysis relative to control cells
[9] = biological target: T1, RNA polymerase II (Mus musculus); test: Inhibition of RNA polymerase II in mouse B16-F1 migrating cells assessed as fold change in Dph3-RNA stability at 0.1 mM measured by ChIP-seq analysis relative to control cells
[10] = biological target: T1, RNA polymerase II (Mus musculus); test: Inhibition of RNA polymerase II in mouse B16-F1 migrating cells assessed as fold change in Tmpo-RNA stability at 0.1 mM measured by ChIP-seq analysis relative to control cells
[11] = biological target: T1, RNA polymerase II (Mus musculus); test: Inhibition of RNA polymerase II in mouse B16-F1 migrating cells assessed as fold change in Selenbp1-RNA stability at 0.1 mM measured by ChIP-seq analysis relative to control cells
[12] = biological target: T1, RNA polymerase II (Mus musculus); test: Inhibition of RNA polymerase II in mouse B16-F1 migrating cells assessed as fold change in Abcb7-RNA stability at 0.1 mM measured by ChIP-seq analysis relative to control cells
[13] = biological target: T1, RNA polymerase II (Mus musculus); test: Inhibition of RNA polymerase II in mouse B16-F1 migrating cells assessed as fold change in Zeb2-RNA stability at 0.1 mM measured by ChIP-seq analysis relative to control cells
[14] = biological target: T1, RNA polymerase II (Mus musculus); test: Inhibition of RNA polymerase II in mouse B16-F1 migrating cells assessed as fold change in Wdr83os-RNA stability at 0.1 mM measured by ChIP-seq analysis relative to control cells
[15] = biological target: T1, RNA polymerase II (Mus musculus); test: Inhibition of RNA polymerase II in mouse B16-F1 migrating cells assessed as fold change in Rbbp8-RNA stability at 0.1 mM measured by ChIP-seq analysis relative to control cells
[16] = biological target: T1, RNA polymerase II (Mus musculus); test: Inhibition of RNA polymerase II in mouse B16-F1 migrating cells assessed as fold change in Herc4-RNA stability at 0.1 mM measured by ChIP-seq analysis relative to control cells
[17] = biological target: T1, RNA polymerase II (Mus musculus); test: Inhibition of RNA polymerase II in mouse B16-F1 migrating cells assessed as fold change in Hnrnpr-RNA stability at 0.1 mM measured by ChIP-seq analysis relative to control cells
[18] = biological target: T1, RNA polymerase II (Mus musculus); test: Inhibition of RNA polymerase II in mouse B16-F1 migrating cells assessed as fold change in Cdk15-RNA stability at 0.1 mM measured by ChIP-seq analysis relative to control cells
[19] = biological target: T1, RNA polymerase II (Mus musculus); test: Inhibition of RNA polymerase II in mouse B16-F1 migrating cells assessed as fold change in Morn2-RNA stability at 0.1 mM measured by ChIP-seq analysis relative to control cells
[20] = biological target: T1, RNA polymerase II (Mus musculus); test: Inhibition of RNA polymerase II in mouse B16-F1 migrating cells assessed as fold change in Coq8b-RNA stability at 0.1 mM measured by ChIP-seq analysis relative to control cells
[21] = biological target: Histone-lysine N-methyltransferase EZH2 (Mus musculus) (UniProt Q61188); test: Inhibition of EZH2 in mouse B16-F1 migrating cells assessed as fold change in H3K27me3-buffered regulated Arhgap5-mRNA expression at 3 uM measured by ChIP-seq analysis relative to control cells
[22] = biological target: Histone-lysine N-methyltransferase EZH2 (Mus musculus) (UniProt Q61188); test: Inhibition of EZH2 in mouse B16-F1 migrating cells assessed as fold change in H3K27me3-buffered regulated Epha7-mRNA expression at 3 uM measured by ChIP-seq analysis relative to control cells
[23] = biological target: Histone-lysine N-methyltransferase EZH2 (Mus musculus) (UniProt Q61188); test: Inhibition of EZH2 in mouse B16-F1 migrating cells assessed as fold change in H3K27me3-buffered regulated Hmgcr-mRNA expression at 3 uM measured by ChIP-seq analysis relative to control cells
[24] = biological target: Histone-lysine N-methyltransferase EZH2 (Mus musculus) (UniProt Q61188); test: Inhibition of EZH2 in mouse B16-F1 migrating cells assessed as fold change in H3K27me3-buffered regulated Fdps-mRNA expression at 3 uM measured by ChIP-seq analysis relative to control cells
[25] = biological target: Histone-lysine N-methyltransferase EZH2 (Mus musculus) (UniProt Q61188); test: Inhibition of EZH2 in mouse B16-F1 migrating cells assessed as fold change in H3K27me3-buffered regulated Rsrc2-mRNA expression at 3 uM measured by ChIP-seq analysis relative to control cells
[26] = biological target: Histone-lysine N-methyltransferase EZH2 (Mus musculus) (UniProt Q61188); test: Inhibition of EZH2 in mouse B16-F1 migrating cells assessed as fold change in H3K27me3-buffered regulated 2700081O15Rik-mRNA expression at 3 uM measured by ChIP-seq analysis relative to control cells
[27] = biological target: Histone-lysine N-methyltransferase EZH2 (Mus musculus) (UniProt Q61188); test: Inhibition of EZH2 in mouse B16-F1 migrating cells assessed as fold change in H3K27me3-independent regulated Gng4-mRNA expression at 3 uM measured by ChIP-seq analysis relative to control cells
[28] = biological target: Histone-lysine N-methyltransferase EZH2 (Mus musculus) (UniProt Q61188); test: Inhibition of EZH2 in mouse B16-F1 migrating cells assessed as fold change in H3K27me3-buffered regulated Ccdc88c-mRNA expression at 3 uM measured by ChIP-seq analysis relative to control cells
[29] = biological target: Histone-lysine N-methyltransferase EZH2 (Mus musculus) (UniProt Q61188); test: Inhibition of EZH2 in mouse B16-F1 migrating cells assessed as fold change in H3K27me3-buffered regulated Syngr4-mRNA expression at 3 uM measured by ChIP-seq analysis relative to control cells
[30] = biological target: Histone-lysine N-methyltransferase EZH2 (Mus musculus) (UniProt Q61188); test: Inhibition of EZH2 in mouse B16-F1 migrating cells assessed as fold change in H3K27me3-dependent regulated Lpar5-mRNA expression at 3 uM measured by ChIP-seq analysis relative to control cells

SMILES: OC[C@H]1O[C@@H](n2cnc3cc(Cl)c(Cl)cc32)[C@H](O)[C@@H]1O
- log2FC [1]: -0.89
- log2FC [2]: 0.48
- log2FC [3]: -0.4
- log2FC [4]: 0.78
- log2FC [5]: 0.94
- log2FC [6]: -0.44
- log2FC [7]: -0.73
- log2FC [8]: -0.88
- log2FC [9]: 0.47
- log2FC [10]: -0.5
- log2FC [11]: 1.46
- log2FC [12]: -0.39
- log2FC [13]: -0.77
- log2FC [14]: 0.43
- log2FC [15]: -0.69
- log2FC [16]: -0.56
- log2FC [17]: -0.5
- log2FC [18]: -0.48
- log2FC [19]: 0.82
- log2FC [20]: 0.57

SMILES: CCCc1cc(C)[nH]c(=O)c1CNC(=O)c1cc(-c2ccnc(N3CCN(C)CC3)c2)cc2c1cnn2C(C)C
- log2FC [21]: -0.48
- log2FC [22]: -0.49
- log2FC [23]: 0.48
- log2FC [24]: 0.39
- log2FC [25]: -0.53
- log2FC [26]: -0.42
- log2FC [27]: 1.33
- log2FC [28]: -0.38
- log2FC [29]: 0.79
- log2FC [30]: -0.3
